For at least one entry, the source does not settle the construct or the ends of the probe. At least one result comes from cells or an extract, where the contact may be indirect. For some of these results: No signal at the amounts used counts as a negative.
Tests used:
[1] = target: p65-NF-kB (nuclear extract of LPS-stimulated hPVECs) (Homo sapiens) (UniProt Q04206); test: EMSA supershift; conditions: anti-p65 antibody, LPS-stimulated hPVEC nuclear extract; EMSA: 0.08 pmol DIG-labelled probe, 1 ug nuclear protein (up to 5 ug); pH and temperature not stated; protein in an extract; label: DIG-11-ddUTP 3' (TdT)
[2] = target: p65-NF-kB (nuclear extract of LPS-stimulated hPVECs) (Homo sapiens) (UniProt Q04206); test: competition with a labelled probe; conditions: unlabelled self-competitor against N1, excess 1x/2x/4x in legend, 50X/100X/200X in Methods; EMSA: 0.08 pmol DIG-labelled probe, 1 ug nuclear protein (up to 5 ug); pH and temperature not stated; protein in an extract
[3] = target: p65-NF-kB (nuclear extract of LPS-stimulated hPVECs) (Homo sapiens) (UniProt Q04206); test: EMSA; conditions: 1 ug LPS-stimulated hPVEC nuclear extract, EMSA: 0.08 pmol DIG-labelled probe, 1 ug nuclear protein (up to 5 ug), pH and temperature not stated, protein in an extract, label: DIG-11-ddUTP 3' (TdT)

Chains of the proteins cited; added tags and fusions are not shown.
UniProt Q04206, whole entry: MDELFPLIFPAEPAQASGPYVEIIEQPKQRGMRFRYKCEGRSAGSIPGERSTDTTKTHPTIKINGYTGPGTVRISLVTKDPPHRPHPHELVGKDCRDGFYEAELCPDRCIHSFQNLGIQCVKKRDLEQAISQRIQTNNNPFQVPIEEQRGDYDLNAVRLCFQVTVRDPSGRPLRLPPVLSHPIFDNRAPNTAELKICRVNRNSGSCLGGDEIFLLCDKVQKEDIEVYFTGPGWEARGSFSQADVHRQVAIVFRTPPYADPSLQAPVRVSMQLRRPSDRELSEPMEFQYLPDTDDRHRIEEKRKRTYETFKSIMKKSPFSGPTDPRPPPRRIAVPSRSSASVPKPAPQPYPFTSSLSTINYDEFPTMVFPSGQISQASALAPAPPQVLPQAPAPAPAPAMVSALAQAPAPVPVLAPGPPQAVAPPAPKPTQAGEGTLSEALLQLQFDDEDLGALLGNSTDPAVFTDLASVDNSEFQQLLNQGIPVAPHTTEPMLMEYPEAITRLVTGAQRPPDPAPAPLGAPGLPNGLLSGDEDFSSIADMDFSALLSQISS

Q: Does “CCGCCCGGGACTCCCCTGCG (double strand) [Hb-alpha promoter NF-kB wild-type probe]” bind [1]?
A: Result: binds

Q: Does “CCGCCCGGGACTCCCCTGCG (double strand) [unlabelled Hb-alpha promoter NF-kB wild-type competitor]” bind [2]?
A: Result: binds

Q: Does “AGTTGAGGGGACTTTCCCAGGC (double strand) [NF-kB standard probe]” bind ([3]; no supershift with this probe)?
A: Result: binds

Q: Does “CCGCCCGGGCCTGACCTGCG (double strand) [Hb-alpha promoter NF-kB mutant probe]” bind [3]?
A: Result: no binding

From PMC5298339
